No constants are given. Whether binding was seen depends on the method and setting. Binding calls can cover weak binding; strength is not graded here. For part of these data: Where a sequence is shown, tags or fusion partners need not be part of it. For part of these data: Binding seen in cells or lysates may run through a third protein.

The target of assay [1] is T1, FLAG-UPF1 (pcIneo-FLAG-UPF1) (UniProt Q92900).
T1 sequence: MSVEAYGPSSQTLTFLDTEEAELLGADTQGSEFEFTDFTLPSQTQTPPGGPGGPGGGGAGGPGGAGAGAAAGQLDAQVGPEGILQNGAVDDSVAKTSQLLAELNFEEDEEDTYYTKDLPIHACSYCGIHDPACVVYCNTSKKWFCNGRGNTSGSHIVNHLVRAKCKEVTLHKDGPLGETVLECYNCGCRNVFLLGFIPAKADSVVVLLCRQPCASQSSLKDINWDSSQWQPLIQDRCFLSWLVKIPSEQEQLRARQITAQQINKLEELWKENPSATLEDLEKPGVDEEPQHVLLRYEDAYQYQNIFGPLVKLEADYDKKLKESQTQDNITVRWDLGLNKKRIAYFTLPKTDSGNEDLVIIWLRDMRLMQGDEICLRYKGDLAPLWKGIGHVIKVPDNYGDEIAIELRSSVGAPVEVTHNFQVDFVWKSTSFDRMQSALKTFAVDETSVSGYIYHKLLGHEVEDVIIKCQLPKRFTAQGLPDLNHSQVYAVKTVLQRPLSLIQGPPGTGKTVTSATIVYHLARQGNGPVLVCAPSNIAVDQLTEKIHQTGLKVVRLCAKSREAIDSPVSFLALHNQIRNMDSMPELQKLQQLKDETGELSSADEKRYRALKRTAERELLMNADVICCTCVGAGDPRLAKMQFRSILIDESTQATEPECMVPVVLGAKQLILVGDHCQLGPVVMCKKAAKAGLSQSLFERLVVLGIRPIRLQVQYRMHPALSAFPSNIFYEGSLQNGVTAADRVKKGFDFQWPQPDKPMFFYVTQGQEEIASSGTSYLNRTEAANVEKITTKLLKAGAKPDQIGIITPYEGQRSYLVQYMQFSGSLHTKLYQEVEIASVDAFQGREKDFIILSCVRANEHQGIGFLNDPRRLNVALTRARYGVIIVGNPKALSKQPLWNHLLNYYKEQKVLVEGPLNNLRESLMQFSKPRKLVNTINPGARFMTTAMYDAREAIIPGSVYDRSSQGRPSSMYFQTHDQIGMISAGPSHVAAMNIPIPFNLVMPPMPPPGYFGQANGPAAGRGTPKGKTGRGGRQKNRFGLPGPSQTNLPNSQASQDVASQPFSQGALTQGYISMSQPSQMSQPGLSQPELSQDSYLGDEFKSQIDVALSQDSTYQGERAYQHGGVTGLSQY
Description: co-IP; FLAG-UPF1 or FLAG-GFP co-transfected with T7-DHX34 constructs in HEK293T; anti-FLAG immunoprecipitates probed for T7-DHX34 constructs.

In assay [2] the target is His-UPF1 (residues 115–914) (UniProt Q92900). Description: pull-down; co-incubation of purified T7-DHX34 (full-length, ΔCTD, 1–809) with purified FLAG-tagged full-length UPF1 or UPF1 (115–914); performed as described previously (ref. 38); both purified.
For assay [3], the target named is T2, purified FLAG-tagged full-length UPF1 (UniProt Q92900).
T2 sequence: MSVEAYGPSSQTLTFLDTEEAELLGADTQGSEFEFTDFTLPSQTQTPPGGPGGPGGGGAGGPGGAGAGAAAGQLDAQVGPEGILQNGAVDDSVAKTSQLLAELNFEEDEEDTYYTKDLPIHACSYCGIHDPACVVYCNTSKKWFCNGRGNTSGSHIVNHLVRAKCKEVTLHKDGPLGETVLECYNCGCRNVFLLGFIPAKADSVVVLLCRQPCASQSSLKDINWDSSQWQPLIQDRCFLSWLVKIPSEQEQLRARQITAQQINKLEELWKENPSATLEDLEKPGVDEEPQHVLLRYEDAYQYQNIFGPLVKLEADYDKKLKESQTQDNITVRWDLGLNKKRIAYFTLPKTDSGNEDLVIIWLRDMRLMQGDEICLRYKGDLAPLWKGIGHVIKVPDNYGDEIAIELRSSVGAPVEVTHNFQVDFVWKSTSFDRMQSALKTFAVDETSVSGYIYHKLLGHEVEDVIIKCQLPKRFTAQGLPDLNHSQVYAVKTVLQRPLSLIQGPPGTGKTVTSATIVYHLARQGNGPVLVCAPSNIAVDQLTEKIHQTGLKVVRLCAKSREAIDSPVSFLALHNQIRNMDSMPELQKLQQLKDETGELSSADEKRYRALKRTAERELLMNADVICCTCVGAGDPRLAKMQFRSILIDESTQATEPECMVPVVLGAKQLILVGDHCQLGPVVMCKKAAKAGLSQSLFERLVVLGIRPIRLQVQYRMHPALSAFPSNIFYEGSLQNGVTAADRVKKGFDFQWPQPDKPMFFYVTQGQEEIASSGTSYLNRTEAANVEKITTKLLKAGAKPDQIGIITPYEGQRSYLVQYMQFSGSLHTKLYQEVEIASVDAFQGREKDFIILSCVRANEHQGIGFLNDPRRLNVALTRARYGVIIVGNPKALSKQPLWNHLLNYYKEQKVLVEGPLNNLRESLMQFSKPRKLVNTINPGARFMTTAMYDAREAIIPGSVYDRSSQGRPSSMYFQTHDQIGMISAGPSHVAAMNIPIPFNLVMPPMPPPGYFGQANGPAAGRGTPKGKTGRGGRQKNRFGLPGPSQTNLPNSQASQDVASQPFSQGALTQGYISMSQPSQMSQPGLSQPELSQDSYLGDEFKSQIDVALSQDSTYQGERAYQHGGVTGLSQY
The description is as above.

The target of assay [4] is FLAG-HA-SBP-SMG1C (SMG1–SMG8–SMG9 complex). Briefly: negative-stain single-particle electron microscopy; SMG1C and DHX34 mixed at 1:1.5 molar ratio, fixed with 0.02% glutaraldehyde 10 min at 25 °C, stained with 1% uranyl formate; 13,080 images of the complex, 3D structure at about 21 Å; both purified.
The target of assay [5] is His-UPF1 (residues 115–914) (UniProt Q92900). Description: pull-down; His-UPF1 (115–914) 0.4 μM with two-fold molar excess of FLAG-DHX34 and/or 15 nM FLAG-HA-SBP-SMG1C in 40 mM Tris-HCl pH 7.5, 200 mM NaCl, 10% glycerol, 20 mM imidazole, 1 mM MgCl2, 1 μM ZnCl2, 2 mM DTT, 0.1% NP-40; 20 min 25 °C; Ni-NTA agarose, eluted with 500 mM imidazole; anti-FLAG and anti-His blots; both purified.

The target in assay [6] is FLAG-HA-SBP-SMG1C (SMG1–SMG8–SMG9 complex). Briefly: pull-down; FLAG-HA-SBP-SMG1C (17 nM) or SBP-GFP mixed with a three-fold molar excess of FLAG-DHX34 (full length or ΔCTD) in 20 mM Tris-HCl pH 7.5, 100 mM NaCl, 2.5 mM MgCl2, 0.5 mM DTT, 0.01% Tween 20, 4 °C; bound to Streptavidin Sepharose, eluted with 2 mM biotin; anti-FLAG western blot; both purified.

With “T7-DHX34 ΔOB (from UniProt Q14147) (enzyme)”, the binding result in assay [1] is reported as “binds”. Turning to “T7-DHX34 ΔCTD (from UniProt Q14147) (domain or fragment)”, the binding result in assay [1], in assay [2] and in assay [3] was “binds” each time.

B1: FLAG-DHX34 full-length (enzyme, UniProt Q14147 1-1143)
chain: MPPPRTREGRDRRDHHRAPSEEEALEKWDWNCPETRRLLEDAFFREEDYIRQGSEECQKFWTFFERLQRFQNLKTSRKEEKDPGQPKHSIPALADLPRTYDPRYRINLSVLGPATRGSQGLGRHLPAERVAEFRRALLHYLDFGQKQAFGRLAKLQRERAALPIAQYGNRILQTLKEHQVVVVAGDTGCGKSTQVPQYLLAAGFSHVACTQPRRIACISLAKRVGFESLSQYGSQVGYQIRFESTRSAATKIVFLTVGLLLRQIQREPSLPQYEVLIVDEVHERHLHNDFLLGVLQRLLPTRPDLKVILMSATINISLFSSYFSNAPVVQVPGRLFPITVVYQPQEAEPTTSKSEKLDPRPFLRVLESIDHKYPPEERGDLLVFLSGMAEISAVLEAAQTYASHTQRWVVLPLHSALSVADQDKVFDVAPPGVRKCILSTNIAETSVTIDGIRFVVDSGKVKEMSYDPQAKLQRLQEFWISQASAEQRKGRAGRTGPGVCFRLYAESDYDAFAPYPVPEIRRVALDSLVLQMKSMSVGDPRTFPFIEPPPPASLETAILYLRDQGALDSSEALTPIGSLLAQLPVDVVIGKMLILGSMFSLVEPVLTIAAALSVQSPFTRSAQSSPECAAARRPLESDQGDPFTLFNVFNAWVQVKSERSRNSRKWCRRRGIEEHRLYEMANLRRQFKELLEDHGLLAGAQAAQVGDSYSRLQQRRERRALHQLKRQHEEGAGRRRKVLRLQEEQDGGSSDEDRAGPAPPGASDGVDIQDVKFKLRHDLAQLQAAASSAQDLSREQLALLKLVLGRGLYPQLAVPDAFNSSRKDSDQIFHTQAKQGAVLHPTCVFAGSPEVLHAQELEASNCDGSRDDKDKMSSKHQLLSFVSLLETNKPYLVNCVRIPALQSLLLFSRSLDTNGDCSRLVADGWLELQLADSESAIRLLAASLRLRARWESALDRQLAHQAQQQLEEEEEDTPVSPKEVATLSKELLQFTASKIPYSLRRLTGLEVQNMYVGPQTIPATPHLPGLFGSSTLSPHPTKGGYAVTDFLTYNCLTNDTDLYSDCLRTFWTCPHCGLHAPLTPLERIAHENTCPQAPQDGPPGAEEAALETLQKTSVLQRPYHCEACGKDFLFTPTEVLRHRKQHV
For the molecule B1, the binding entry in assay [4], in assay [5] and in assay [6] was “binds” in each case.

B2: T7-DHX34 full-length (enzyme, UniProt Q14147 1-1143)
chain: MPPPRTREGRDRRDHHRAPSEEEALEKWDWNCPETRRLLEDAFFREEDYIRQGSEECQKFWTFFERLQRFQNLKTSRKEEKDPGQPKHSIPALADLPRTYDPRYRINLSVLGPATRGSQGLGRHLPAERVAEFRRALLHYLDFGQKQAFGRLAKLQRERAALPIAQYGNRILQTLKEHQVVVVAGDTGCGKSTQVPQYLLAAGFSHVACTQPRRIACISLAKRVGFESLSQYGSQVGYQIRFESTRSAATKIVFLTVGLLLRQIQREPSLPQYEVLIVDEVHERHLHNDFLLGVLQRLLPTRPDLKVILMSATINISLFSSYFSNAPVVQVPGRLFPITVVYQPQEAEPTTSKSEKLDPRPFLRVLESIDHKYPPEERGDLLVFLSGMAEISAVLEAAQTYASHTQRWVVLPLHSALSVADQDKVFDVAPPGVRKCILSTNIAETSVTIDGIRFVVDSGKVKEMSYDPQAKLQRLQEFWISQASAEQRKGRAGRTGPGVCFRLYAESDYDAFAPYPVPEIRRVALDSLVLQMKSMSVGDPRTFPFIEPPPPASLETAILYLRDQGALDSSEALTPIGSLLAQLPVDVVIGKMLILGSMFSLVEPVLTIAAALSVQSPFTRSAQSSPECAAARRPLESDQGDPFTLFNVFNAWVQVKSERSRNSRKWCRRRGIEEHRLYEMANLRRQFKELLEDHGLLAGAQAAQVGDSYSRLQQRRERRALHQLKRQHEEGAGRRRKVLRLQEEQDGGSSDEDRAGPAPPGASDGVDIQDVKFKLRHDLAQLQAAASSAQDLSREQLALLKLVLGRGLYPQLAVPDAFNSSRKDSDQIFHTQAKQGAVLHPTCVFAGSPEVLHAQELEASNCDGSRDDKDKMSSKHQLLSFVSLLETNKPYLVNCVRIPALQSLLLFSRSLDTNGDCSRLVADGWLELQLADSESAIRLLAASLRLRARWESALDRQLAHQAQQQLEEEEEDTPVSPKEVATLSKELLQFTASKIPYSLRRLTGLEVQNMYVGPQTIPATPHLPGLFGSSTLSPHPTKGGYAVTDFLTYNCLTNDTDLYSDCLRTFWTCPHCGLHAPLTPLERIAHENTCPQAPQDGPPGAEEAALETLQKTSVLQRPYHCEACGKDFLFTPTEVLRHRKQHV
On to B2, for which, in assay [2], the binding entry is reported as “binds”.

B3: T7-DHX34 (1–809) (domain or fragment, UniProt Q14147 1-809)
chain: MPPPRTREGRDRRDHHRAPSEEEALEKWDWNCPETRRLLEDAFFREEDYIRQGSEECQKFWTFFERLQRFQNLKTSRKEEKDPGQPKHSIPALADLPRTYDPRYRINLSVLGPATRGSQGLGRHLPAERVAEFRRALLHYLDFGQKQAFGRLAKLQRERAALPIAQYGNRILQTLKEHQVVVVAGDTGCGKSTQVPQYLLAAGFSHVACTQPRRIACISLAKRVGFESLSQYGSQVGYQIRFESTRSAATKIVFLTVGLLLRQIQREPSLPQYEVLIVDEVHERHLHNDFLLGVLQRLLPTRPDLKVILMSATINISLFSSYFSNAPVVQVPGRLFPITVVYQPQEAEPTTSKSEKLDPRPFLRVLESIDHKYPPEERGDLLVFLSGMAEISAVLEAAQTYASHTQRWVVLPLHSALSVADQDKVFDVAPPGVRKCILSTNIAETSVTIDGIRFVVDSGKVKEMSYDPQAKLQRLQEFWISQASAEQRKGRAGRTGPGVCFRLYAESDYDAFAPYPVPEIRRVALDSLVLQMKSMSVGDPRTFPFIEPPPPASLETAILYLRDQGALDSSEALTPIGSLLAQLPVDVVIGKMLILGSMFSLVEPVLTIAAALSVQSPFTRSAQSSPECAAARRPLESDQGDPFTLFNVFNAWVQVKSERSRNSRKWCRRRGIEEHRLYEMANLRRQFKELLEDHGLLAGAQAAQVGDSYSRLQQRRERRALHQLKRQHEEGAGRRRKVLRLQEEQDGGSSDEDRAGPAPPGASDGVDIQDVKFKLRHDLAQLQAAASSAQDLSREQLALLKLVLGRGLY
Take B3: the binding entry in assay [2] is “binds”.

The record behind these values is paper PMC4743010.
